Values joined by “and” are separate entries in the source; they are usually repeats but may differ in a detail not shown here. Equal entries are not always repeated. This continues a long series; more values of the same kind are listed elsewhere.
Test system: U2OS cells
Assay: Cell growth assay (IncuCyte confluence over 72 h)
Type: cell-based
Parameters: key: % of well area covered by cells (confluence)
Conditions: listed as 10O5
How it was run: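 U2OS cells were grown in DMEM with 10% FBS for 24 h before treatment. Confluence was then tracked by IncuCyte phase imaging over 72 h and expressed as % of well area covered by cells. Each point is the average of three wells.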

SMILES: O=C1Nc2ccc(I)cc2C1=Cc1cc(Br)c(O)c(Br)c1 [compound 4]
- U2OS cell growth (100 nM, time 12 h): 35.0644 and 31.1368 and 38.1423
- U2OS cell growth (100 nM, time 14 h): 39.6825 and 32.5147 and 41.0194
- U2OS cell growth (100 nM, time 16 h): 43.7196 and 34.5829 and 41.8557
- U2OS cell growth (100 nM, time 18 h): 44.6048 and 36.7887 and 45.0754
- U2OS cell growth (100 nM, time 20 h): 50.2219 and 32.9514 and 47.1764
- U2OS cell growth (100 nM, time 22 h): 46.2232 and 43.1632 and 48.735
- U2OS cell growth (100 nM, time 24 h): 47.4118 and 39.5106 and 54.7751
- U2OS cell growth (100 nM, time 26 h): 49.6815 and 42.9623 and 54.3754
- U2OS cell growth (100 nM, time 28 h): 62.1531 and 48.8537 and 57.2243
- U2OS cell growth (100 nM, time 30 h): 59.2394 and 47.8128 and 59.6333
- U2OS cell growth (100 nM, time 32 h): 61.7606 and 49.8461 and 58.8145
- U2OS cell growth (100 nM, time 34 h): 55.5071 and 50.9488 and 60.4858
- U2OS cell growth (100 nM, time 36 h): 60.4748 and 57.0533 and 63.2657
- U2OS cell growth (100 nM, time 38 h): 80.2582 and 68.7786 and 75.5151
- U2OS cell growth (100 nM, time 40 h): 74.3424 and 63.4087 and 71.4095
- U2OS cell growth (100 nM, time 42 h): 71.5765 and 63.2134 and 75.4086
- U2OS cell growth (100 nM, time 44 h): 82.0668 and 66.6662 and 76.8801
- U2OS cell growth (100 nM, time 46 h): 67.436 and 54.129 and 79.3314
- U2OS cell growth (100 nM, time 48 h): 81.0144 and 70.0285 and 75.752
- U2OS cell growth (100 nM, time 50 h): 78.848 and 69.4981 and 76.9393
- U2OS cell growth (100 nM, time 52 h): 82.3095 and 73.5248 and 81.7666
- U2OS cell growth (100 nM, time 54 h): 82.3358 and 67.0294 and 86.7412
- U2OS cell growth (100 nM, time 56 h): 88.3673 and 82.0399 and 84.9322
- U2OS cell growth (100 nM, time 58 h): 91.2498 and 85.7258 and 88.8638
- U2OS cell growth (100 nM, time 60 h): 98.2088 and 94.1479 and 95.1492
- U2OS cell growth (100 nM, time 62 h): 91.9817 and 87.5351 and 89.1541
- U2OS cell growth (100 nM, time 64 h): 92.0007 and 87.7247 and 88.321
- U2OS cell growth (100 nM, time 66 h): 90.2359 and 90.969 and 90.8012
- U2OS cell growth (100 nM, time 68 h): 95.5097 and 95.1042 and 93.296
- U2OS cell growth (100 nM, time 70 h): 97.3249 and 94.5386 and 92.5984
- U2OS cell growth (100 nM, time 72 h): 93.7424 and 93.1479 and 94.0851
- U2OS cell growth (500 nM, time 12 h): 36.7144 and 38.5756 and 38.73
- U2OS cell growth (500 nM, time 14 h): 41.1561 and 33.0836 and 38.4862
- U2OS cell growth (500 nM, time 16 h): 44.6966 and 38.2126 and 47.919
- U2OS cell growth (500 nM, time 18 h): 45.5344 and 38.5651 and 46.4003
- U2OS cell growth (500 nM, time 20 h): 47.189 and 36.9149 and 43.5315
- U2OS cell growth (500 nM, time 22 h): 54.9922 and 39.5228 and 47.7375
- U2OS cell growth (500 nM, time 24 h): 50.4803 and 42.6257 and 56.4379
- U2OS cell growth (500 nM, time 26 h): 54.3421 and 45.9175 and 53.1348
- U2OS cell growth (500 nM, time 28 h): 57.7272 and 50.7599 and 51.6698
- U2OS cell growth (500 nM, time 30 h): 57.5615 and 55.6625 and 53.968
- U2OS cell growth (500 nM, time 32 h): 62.0392 and 48.8539 and 57.6942
- U2OS cell growth (500 nM, time 34 h): 54.734 and 55.4305 and 59.287
- U2OS cell growth (500 nM, time 36 h): 66.4356 and 58.3506 and 63.4753
- U2OS cell growth (500 nM, time 38 h): 72.8568 and 61.8043 and 71.7026
- U2OS cell growth (500 nM, time 40 h): 73.4548 and 61.4476 and 68.7714
- U2OS cell growth (500 nM, time 42 h): 74.914 and 67.4603 and 74.9385
- U2OS cell growth (500 nM, time 44 h): 80.9607 and 67.5062 and 75.1918
- U2OS cell growth (500 nM, time 46 h): 76.6896 and 67.819 and 68.5995
- U2OS cell growth (500 nM, time 48 h): 85.4568 and 76.7529 and 77.7824
- U2OS cell growth (500 nM, time 50 h): 80.5839 and 72.0833 and 76.9956
- U2OS cell growth (500 nM, time 52 h): 83.8263 and 76.7093 and 82.3668
- U2OS cell growth (500 nM, time 54 h): 79.9481 and 72.7071 and 74.1223
- U2OS cell growth (500 nM, time 56 h): 87.162 and 80.7669 and 85.5542
- U2OS cell growth (500 nM, time 58 h): 90.4423 and 79.7888 and 88.2151
- U2OS cell growth (500 nM, time 60 h): 96.1652 and 88.6921 and 95.8515
- U2OS cell growth (500 nM, time 62 h): 94.001 and 86.5977 and 93.0844
- U2OS cell growth (500 nM, time 64 h): 96.4234 and 87.7997 and 90.4098
- U2OS cell growth (500 nM, time 66 h): 93.8474 and 88.5886 and 92.7486
- U2OS cell growth (500 nM, time 68 h): 97.3024 and 93.223 and 92.7077
- U2OS cell growth (500 nM, time 70 h): 92.1719 and 90.2272 and 97.1342
- U2OS cell growth (500 nM, time 72 h): 96.8429 and 92.5964 and 96.0803
- U2OS cell growth (1 uM, time 12 h): 23.4688 and 28.7975
- U2OS cell growth (1 uM, time 14 h): 43.1801 and 31.5471 and 34.3704
- U2OS cell growth (1 uM, time 16 h): 48.5114 and 40.5974 and 39.7626
- U2OS cell growth (1 uM, time 18 h): 49.1087 and 40.2889 and 36.2219
- U2OS cell growth (1 uM, time 20 h): 44.276 and 40.4638 and 40.4175
- U2OS cell growth (1 uM, time 22 h): 50.6338 and 35.4537 and 44.9267
- U2OS cell growth (1 uM, time 24 h): 50.7394 and 42.3213 and 43.1557
- U2OS cell growth (1 uM, time 26 h): 57.2306 and 39.6462 and 46.5806
- U2OS cell growth (1 uM, time 28 h): 56.0393 and 51.8942 and 43.3047
- U2OS cell growth (1 uM, time 30 h): 57.128 and 50.1384 and 48.8044
- U2OS cell growth (1 uM, time 32 h): 62.383 and 44.9795 and 51.7595
- U2OS cell growth (1 uM, time 34 h): 62.5996 and 44.0049 and 51.7696
- U2OS cell growth (1 uM, time 36 h): 63.4044 and 54.0518 and 58.8679
- U2OS cell growth (1 uM, time 38 h): 67.888 and 57.6638 and 55.5927
- U2OS cell growth (1 uM, time 40 h): 74.5097 and 64.1986 and 66.9349
- U2OS cell growth (1 uM, time 42 h): 75.7921 and 63.625 and 65.6012
- U2OS cell growth (1 uM, time 44 h): 76.6882 and 66.037 and 70.0103
- U2OS cell growth (1 uM, time 46 h): 80.5911 and 64.173 and 64.3277
- U2OS cell growth (1 uM, time 48 h): 82.8196 and 72.4697 and 70.6147
- U2OS cell growth (1 uM, time 50 h): 80.915 and 72.3635 and 70.6707
- U2OS cell growth (1 uM, time 52 h): 88.469 and 78.6078 and 78.2798
- U2OS cell growth (1 uM, time 54 h): 80.123 and 74.4528 and 70.0483
- U2OS cell growth (1 uM, time 56 h): 90.3104 and 83.4737 and 81.2576
- U2OS cell growth (1 uM, time 58 h): 92.1774 and 81.4101 and 79.8599
- U2OS cell growth (1 uM, time 60 h): 95.3333 and 89.0741 and 86.557
- U2OS cell growth (1 uM, time 62 h): 96.0195 and 87.0002 and 86.3753
- U2OS cell growth (1 uM, time 64 h): 95.9066 and 88.9368 and 89.6576
- U2OS cell growth (1 uM, time 66 h): 96.2061 and 94.0294 and 92.8016
- U2OS cell growth (1 uM, time 68 h): 97.3443 and 95.0497 and 91.8947
- U2OS cell growth (1 uM, time 70 h): 96.6759 and 92.6893 and 91.2966
- U2OS cell growth (1 uM, time 72 h): 97.1769 and 91.7585 and 92.6993

— PMC11589570, “Critical assessment of LC3/GABARAP ligands used for degrader development and ligandability of LC3/GABARAP binding pockets” (Nature Communications, 2024)
